Data: PubChem BioAssay AID504467 (National Center for Advancing Translational Sciences (NCATS), 2011)
The whole screen tested about 330,000 compounds, of which about 7,700 (2.3%) were called active. The shares of active, inactive and inconclusive entries below differ from those in the screen. Calls come from the whole dose curve; as a rule, active = well fitted inhibition curve with a large enough effect; inconclusive = small, poorly fitted or top-dose-only effect, or effect the other way; inactive = flat fitted curve, though single readings scatter. Potencies beside an inconclusive call are fits to weak or partial responses and may not hold up.

Assay: qHTS screen for small molecules that inhibit ELG1-dependent DNA repair in human embryonic kidney (HEK293T) cells expressing luciferase-tagged ELG1; note: nearly all actives have a fitted effect of over 55% in size
Details: HEK293T ELG1-luciferase reporter, luminescence, 16 h, DNA damage induced by 5-fluorouridine; activity change, negative = inhibition: at 46.1 µM (top of the series)
Outline: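 Cells (2,000 per well) received 5-fluorouridine plus test compound or DMSO and were incubated 16 hr at 37 °C, 5% CO2. Luciferase activity was read by luminescence 30 min after ONE-Glo addition; signal suppression marked inhibition of damage-induced ELG1 function.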
% is set by controls: 0 for no effect and ±100 for the full control effect; potency is the fitted concentration of half-maximal effect.

Structure (SMILES)	Potency	activity change, negative = inhibition
O=c1[nH]c2ccccc2c(O)c1O	active: 3.26 µM	
O=C(CCN1CCN(S(=O)(=O)c2ccc(Cl)cc2)CC1)Nc1ccc(F)cc1	inconclusive: 20.6 µM [inhibitor, single point]	
CCc1ccc(N2CC(C(=O)OCC(=O)NNC(=O)c3ccccc3)CC2=O)cc1 (centres undefined)		inactive: 0%
Cc1ccc(NC(=O)Nc2cccc(F)c2)nc1	inconclusive: 14.6 µM [activator, partial curve]	
Cc1cccc(OCC(=O)NC(=S)N2CCCc3ccccc32)c1	inconclusive: 12.6 µM [activator, partial curve, poor fit]	
O=C(CSc1ccccc1F)OCC(=O)N1CCN(C(=O)c2ccco2)CC1		inactive: 0%
Nc1nc(-c2ccc3c(c2)CCO3)cs1	inconclusive: 14.6 µM [activator, partial curve]	
COc1ccc(Nc2nc3nonc3nc2N2CCCCC2)cc1	active: 20.6 µM	
CCOC(=O)C1CCCCN1Cc1cccc(Oc2ccccc2)c1 (centres undefined)		inactive: -2.1%
CC(c1ccon1)N(C)Cc1cn(Cc2ccccc2)nc1-c1ccc2c(c1)OCO2 (centres undefined)	inconclusive: 29.1 µM [inhibitor, single point]	
Cc1ccc2c(C)c(C(=O)N3CCN(c4cnccn4)CC3)oc2c1C		inactive: 8.23%
CCOC(=O)c1sc(NC(=O)CSc2nnc(-c3ccco3)n2CC)c(C(=O)OCC)c1C	inconclusive: 18.4 µM [inhibitor, partial curve]	
CN(C)c1nc(SCc2ccc(Cl)cc2)nc2c1CCCC2		inactive: 8.95%
Cc1ccccc1-c1nc2sc(-c3ccccc3)cc2c(=O)o1		inactive: 19.5%
CC(=O)N1CC2([N+](=O)[O-])CN(C(C)=O)CC([N+](=O)[O-])(C1)C2(C)C		inactive: 5.32%
Cc1cc(C)c2cccc(N)c2n1		inactive: 2.69%
COc1ccccc1/C=C/C(=O)/C=C/c1ccccc1O	inconclusive: 29.1 µM [inhibitor, single point]	
O=CNCCCc1nc2ccccc2n1Cc1cccc2ccccc12		inactive: 10.7%
C/C(N)=C(/C#N)C(=O)CSc1nn(-c2ccc(Cl)cc2)c(=S)s1	inconclusive: 29.1 µM [activator, single point]	
O=C(CCNS(=O)(=O)c1ccc2c(c1)CCC(=O)N2)Nc1ccc2c(c1)OCCO2	inconclusive: 29.1 µM [activator, single point]	
CCOc1cc2c3c(c1)C1(OCCO1)C(=O)N3C(C)(C)CC2C (centres undefined)		inactive: 1.09%
Cc1cc(NS(=O)(=O)c2ccc(NC(=O)CSc3nc4ncccc4[nH]3)cc2)nc(C)n1	inconclusive: 16.4 µM [activator, single point]	
CC(C)c1nc(NCCN2CCOCC2)c(C#N)c2c1COC(C)(C)C2	inconclusive: 16.4 µM [inhibitor, partial curve]	
O=C1NCCn2ccc(=O)cc21		inactive: -1.7%
O=c1[nH]c(C2CCCN(S(=O)(=O)c3ccccc3F)C2)nc2c1nnn2Cc1ccccc1Cl (centres undefined)		inactive: -20.8%

Structure (SMILES)	Potency	activity change, negative = inhibition
CCn1c2ccccc2c2cc(/C=N/NC(=O)c3ccccc3)ccc21	inconclusive: 20.6 µM [inhibitor, single point]	
O=C(CC1CC2CCC1C2)NCc1cccs1 (centres undefined)	inconclusive: 29.1 µM [activator, single point]	
CC1(C)COC(/C=C/c2cccc([N+](=O)[O-])c2)=N1	inconclusive: 29.1 µM [inhibitor, single point]	
COc1ccccc1NC(=O)CSc1nnc(NC(=O)C2CCC2)s1	inconclusive: 23.1 µM [inhibitor, single point]	
O=c1/c(=C/c2ccco2)sc2n1CN(c1ccccc1)CN=2	inconclusive: 23.1 µM [activator, single point]	
O=C(Nc1ccc(S(=O)(=O)N2CCOCC2)cc1)c1ccc([N+](=O)[O-])s1	active: 2.59 µM	
CC(C)OC(=O)c1cc2c(ccn2-c2ccc(F)cc2)n1CC(=O)N1CCN(C(=O)c2ccco2)CC1	active: 8.2 µM	
Cn1c(=O)[nH]c(=O)c2c1nc(Br)n2CCCSc1nc2ccccc2o1	inconclusive: 20.6 µM [inhibitor, single point]	
O=C(CN1C(=O)NC2(CCCC2)C1=O)Nc1cc(Cl)ccc1N1CCCCC1		inactive: -2.44%
Cc1ccccc1CN1C[C@@H]2C[C@@H](c3ccc4nsnc4c3)N3CCC[C@@]23C1=O	inconclusive: 23.1 µM [inhibitor, partial curve]	
Cc1ccc(NC(=O)C2CCN(S(=O)(=O)c3cccc4nonc34)CC2)nc1	active: 20.6 µM	
COc1ccc(NC2=CC(c3ccccc3)N(c3ccc(OC)cc3)C2=O)cc1 (centres undefined)	inconclusive: 18.3 µM [activator, partial curve]	
CCCOc1ccc(-c2nnn(CC(=O)N3CCCC(C)C3)n2)cc1 (centres undefined)		inactive: -18.1%
Cc1ccsc1/C=N/N1CCN(Cc2ccccc2)CC1	inconclusive: 29.1 µM [activator, single point]	
CC(C)(C)NC(=O)CSC(=Nc1ccccc1F)NC#N	inconclusive: 16.4 µM [activator, partial curve]	
CCn1cc(/C=C(\NC(=O)c2ccccc2F)C(=O)NCCCN2CCOCC2)c2ccccc21		inactive: 0.555%
O=c1cc(N2CCN(c3ccccc3)CC2)[nH]c(=O)n1-c1ccccc1Cl	inconclusive: 29.1 µM [inhibitor, single point]	
CC(C)NS(=O)(=O)c1ccc(NC(=O)Cc2cccs2)cc1	inconclusive: 20.6 µM [activator, single point]	
NS(=O)(=O)c1cccc(-n2cnnn2)c1		inactive: 10.7%
COc1ccc(-c2sc(NC(C)=O)nc2-c2ccccc2)cc1		inactive: -3.36%
COc1cc(OC)cc(C(=O)NC2CCN(CCCOc3ccccc3)CC2)c1		inactive: -19.3%
N#C/C(=C\c1cccs1)c1nc2ccccc2[nH]1	inconclusive: 4.11 µM [activator, partial curve]	
Nc1nc(Nc2ccccc2F)nc(NC2CCCCC2)c1[N+](=O)[O-]	inconclusive: 16.4 µM [inhibitor, partial curve]	
O=C1C(Cl)=C(Nc2ccccc2)C(=O)c2ccccc21	inconclusive: 29.1 µM [inhibitor, single point]	
CC1(C)CC(=O)C=C(c2cccc(Cl)c2O)C1		inactive: -2.35%

Entries of single compounds, looked up by structure:
O=C(CN1C(=O)NC2(CCCC2)C1=O)Nc1cc(Cl)ccc1N1CCCCC1 in the list: activity change, negative = inhibition: inactive: -2.44%
CC1(C)COC(/C=C/c2cccc([N+](=O)[O-])c2)=N1 in the list: Potency: inconclusive: 29.1 µM [inhibitor, single point]
CC1(C)CC(=O)C=C(c2cccc(Cl)c2O)C1 in the list: activity change, negative = inhibition: inactive: -2.35%

Additional entries:

Structure (SMILES)	Potency	activity change, negative = inhibition
COC(=O)C1=CN(Cc2ccc(OC)c(OC)c2)C=C(C(=O)OC)C1c1cccc(O)c1	inconclusive: 4.61 µM [inhibitor, partial curve]	
CCn1c(SCc2cccc(C(=O)O)c2)nnc1-c1ccccc1	inconclusive: 32.6 µM [activator, single point]	
CCOC(=O)c1ccc(NC(=S)N2CCSC2c2c(F)cc(F)cc2F)cc1 (centres undefined)	inconclusive: 29.1 µM [inhibitor, single point]	
CC1(OC(=O)CCc2ccccc2)C(=O)C=C2C=C(c3ccsc3)OC=C2C1=O (centres undefined)	inconclusive: 29.1 µM [activator, partial curve, poor fit]	
O=C(c1cccc(S(=O)(=O)N2CCN(c3ccccc3)CC2)c1)N1CC=C(c2ccccc2)CC1	inconclusive: 29.1 µM [inhibitor, single point]	
O=C(NCC(c1ccco1)N1CCCCC1)c1ccc(COc2ccccc2)cc1 (centres undefined)		inactive: -5.65%
COc1ccc(-c2nc3cnccn3c2NC(C)(C)CC(C)(C)C)cc1O	inconclusive: 16.4 µM [inhibitor, single point]	
COc1ccc(NC(=O)c2ccc(Cl)cc2)c[n+]1[O-]		inactive: -17%
Cc1cc(C)nc(SCC(=O)NC2=NN=C(c3ccc(Br)cc3)CS2)n1	inconclusive: 29.1 µM [inhibitor, single point]	
CC(=O)c1ccc(NC(=O)CSc2nc(C)cc(C)c2C(N)=O)cc1	inconclusive: 14.6 µM [inhibitor, partial curve, poor fit]	
Cc1nn2c(-n3ccnc3)c3c(nc2c1-c1ccccc1)CCC3	inconclusive: 29.1 µM [inhibitor, single point]	
CCOC(=O)Cc1csc(NC(=O)c2ccco2)n1	inconclusive: 16.4 µM [activator, partial curve]	
O=C(COc1ccc(S(=O)(=O)N2CCOCC2)cc1)NCCCn1ccnc1		inactive: 11.1%
COc1ccc(CN(C(=O)CSc2nnc(-c3ccc(F)cc3)o2)c2ccc(F)cc2)cc1	inconclusive: 29.1 µM [inhibitor, single point]	
Cc1ccc(OCCCCn2c(CO)nc3ccccc32)cc1	inconclusive: 23.1 µM [inhibitor, single point]	
COc1ccc(C(=O)c2cnc(/N=C/N(C)C)s2)cc1	inconclusive: 25.9 µM [activator, single point]	
CCN=c1scc(-c2cccs2)n1/N=C/c1cc(OC)ccc1O	inconclusive: 4.61 µM [activator, partial curve]	
O=C1N/C(=N/N=C/c2ccc(O)cc2)SC1Cc1ccccc1 (centres undefined)	inconclusive: 14.6 µM [activator, partial curve]	
CCCCSc1nc(O)cc(=O)n1CC		inactive: 6.16%
NS(=O)(=O)c1ccc(CNC(=O)c2cccc(S(=O)(=O)N3CCc4ccccc43)c2)cc1	inconclusive: 23.1 µM [inhibitor, single point]	
CC(C)c1ccc(NC(=O)c2cc(Br)ccc2Br)cc1		inactive: 0.0089%
COc1ccc(OC)c(NC(=O)c2ccc(NC(C)=O)cc2)c1		inactive: 0.161%
COc1cc(C(=O)N(Cc2ccccc2)c2cccc(C)c2)ccc1OC(F)F		inactive: -12.6%
Cc1ccsc1/C=N/NC(=O)C1CC(=O)N(c2ccc(F)cc2)C1 (centres undefined)	inconclusive: 18.3 µM [activator, single point]	
